Results as given in PubChem BioAssay AID1794845 (National Center for Advancing Translational Sciences (NCATS), 2023).
Screen size: about 6,900 compounds; fewer than 10 were called active. Calls follow the shape of the dose curve; as a rule, active = well fitted curve in the direction sought with a large enough effect; inconclusive = small, poorly fitted or top-dose-only effect, or another doubt; inactive = no such curve, though single readings can be large or run the other way. The list shows a part of the results.

By UniProt entry, the sequences of proteins in these tests, tags left out. Where a name states a change or a piece, a line headed by the entry shows the natural chain unless it says otherwise.
UniProt C7C422: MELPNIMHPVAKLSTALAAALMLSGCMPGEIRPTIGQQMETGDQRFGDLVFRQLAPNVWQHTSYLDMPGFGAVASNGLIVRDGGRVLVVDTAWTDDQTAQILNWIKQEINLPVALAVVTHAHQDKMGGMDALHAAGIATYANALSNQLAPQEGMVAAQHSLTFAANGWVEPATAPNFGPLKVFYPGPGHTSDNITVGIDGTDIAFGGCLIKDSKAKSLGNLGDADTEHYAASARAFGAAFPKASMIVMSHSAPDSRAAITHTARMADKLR

biological target: Metallo-beta-lactamase type 2 (Klebsiella pneumoniae) (UniProt C7C422); experiment: qHTS to identify inhibitors of the New Delhi Metallo-beta-lactamase (NDM): primary screen against the NCATS Gemini Collection; conditions: NDM-1 enzyme, meropenem hydrolysis, absorbance 300 nm; at 38.4 µM (top of the series) unless noted; also: % of control where 0% means no effect
How it was run: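 Meropenem hydrolysis (50 uM final) by 2 nM NDM-1 read as 300 nm absorbance after 30 min, following >30 min compound–enzyme preincubation in HEPES pH 7.0 with 1 uM ZnSO4 and 0.01% Tween20.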

Activity % (negative = inhibition), inactive:
c1cncc(-c2ccnc(NCC(c3cccnc3)N3CCCCC3)n2)c1 (configuration not stated) -0.943%
Cc1ccc(-c2cn3c(n2)N(C(=O)C2CCCO2)CCC3)cc1 (configuration not stated) 5.7%
CS(=O)(=O)N1CC2(CCN(C3COC3)C2)Cc2ccccc21 (configuration not stated) -1.45%
COC1CCC12CCN(Cc1ccc(C)o1)CC2 (configuration not stated) -1.31%
COc1cc(C)c(-c2nc(CN3CCCC(CN)C3)c(C)o2)cc1C (configuration not stated) 0.794%
CC1(C(=O)N2CCOCC2)CN(Cc2ccccc2)Cc2ccc(Nc3ccccc3)nc21 (configuration not stated) 0.551%
Cc1oc(C(C)C)cc1C(=O)N1CC[C@](C)(O)[C@@H](O)C1 1.98%
Cn1cnc(CN2CCNc3cc(Nc4ccccc4)ncc3C2)c1 6% [at 57.5 µM]
CC(=O)Nc1ccc(CN2CCC[C@H]2c2nc(-c3ccc(N4CCC(C(N)=O)CC4)nc3)no2)cc1 45.9%
CC(C)N1C(=O)C2(CCCC2)C1C(=O)N1CCc2ccccc21 (configuration not stated) 0.375%
O=C(NCc1ccc(OC(F)(F)F)cc1)c1cc(CN2CCOCC2)on1 -9.04%
Cc1cnc(C(=O)N2CC[C@H](CO)[C@H](NC(=O)C3CC3)C2)cn1 1.17%
CNC(=O)c1cccc(-c2cnc3[nH]cc(CC(=O)Nc4ccccc4Cl)c3c2)c1 16.7% [at 57.5 µM]
CCN(C1CCOCC1)C1CN(C(=O)C2CCCCC2)C1 1.58%
Cc1cnc(C2CCC2)n1C1CCN(C(=O)CCC2CCCC2)CC1 -0.292%
O=[S+]([O-])(c1ccccc1)N1CCCC2(CC(c3cccc(C(F)(F)F)c3)=NO2)C1 (configuration not stated) 0.407%
CN1CCN(Cc2nnc(C3CCN(C(=O)C4(N)CC4)CC3)n2C)CC1 40.7%
CC(C)N1C[C@H](O)C[C@H]1c1nnc2n1CCN(C(=O)CCc1c[nH]c3ccccc13)CC2 16.5%
O=c1cc(-c2cccnc2)oc2c(-c3cn[nH]c3)nccc12 4.07% [at 77.1 µM]
O=C(c1cccnc1)N1CCC12Cc1ccccc1NC2=O (configuration not stated) 2.35% [at 57.5 µM]
CCC(=O)N1CCCCCCNC(=O)[C@@H]2C[C@@H](C(=O)N3CCN(c4ccccn4)CC3)C[C@@H]21 17.9%
COc1cccc(CC(=O)N[C@@H]2CN(c3ncccn3)C[C@H]2CO)c1 13.5%
CS(=O)(=O)N1C[C@H]2CCN(C(=O)c3cc(F)ccc3F)C[C@H]21 31.1%
COc1cc(CNCc2ccccc2C)ccc1OCC(O)CN1CCC(O)CC1 (configuration not stated) -1.14%
CN(C)C[C@@H]1CN(C2CCOCC2)C[C@H]1NC(=O)Cc1ccccc1Cl 0.861%
O=C(NC[C@H]1O[C@@H](CC(=O)N2CCN(c3ccccn3)CC2)[C@H](O)[C@@H]1O)c1ccco1 0.625% [at 57.5 µM]
Cn1cc(-c2nc(N3CCOCC3)cc3c2CN(CC2CC2)C3=O)cn1 3.84% [at 57.5 µM]
O=C(N[C@H](C1CCNCC1)C1CC(O)C1)c1ccc2nccnc2c1 (some centres not stated) 28.9%
O=C(NC1CCN(c2ccc3nnc(-c4ccccc4)n3n2)CC1)C1CCCC1 8.3%
Cc1cc(C(=O)N2CCCCCC2CN2CCC(C)CC2)nn1C (configuration not stated) -0.739%
Cc1noc(C)c1-c1cnc(Nc2ccc(CN3CCN(C)CC3)cc2)c2c1CCO2 9.84% [at 57.5 µM]
CCN(Cc1ccncc1)C(=O)c1coc(COc2cccc(C(F)(F)F)c2)n1 0.141%
Cc1nnsc1C(=O)N[C@H]1CCN(C(=O)c2ccco2)[C@H](C(=O)N[C@H](Cc2c[nH]c3ccccc23)C(N)=O)C1 -8.65%
O=C(NCCc1ccccc1)N1CC(c2noc(C3CCCN3CC3CC3)n2)C1 (configuration not stated) -2.11%
O=C(c1coc(COc2ccc(F)cc2)n1)N1CCC(c2ccc(F)cc2)C1 (configuration not stated) 35.2%
O=C(NCC1CCOC1)C1CCN(c2nc(-c3ccccc3)nc3c2CCC3)CC1 (configuration not stated) 0.217%
CC(=O)N1CCN(C(=O)c2ccc3oc(-c4cccnc4C)nc3c2)CC1 14.2% [at 57.5 µM]
Cn1ccnc1CN[C@@H]1C[C@H](CO)[C@@H](O)[C@H]1O -3.35% [at 77.1 µM]
CCCc1nnc([C@H]2CCN(C(=O)c3ccccc3)C2)o1 4.06% [at 77.1 µM]
O=C1NC2(Cc3ccccc31)CN(C(=O)c1ccccc1Cl)C2 0.425%
CCCCS(=O)(=O)N1C[C@@H](C(N)=O)[C@H](C2CCN(C)CC2)C1 -2.68%
O=C(O)c1cc2c(s1)CCN(C(=O)c1ccc(F)cc1)C2 0.29%
COCCc1nncn1C1CCN(C(=O)c2ccc(C)s2)CC1 6.57%
O=C(c1nc2c(o1)CCN(Cc1cccc(F)c1)CC2)N1CCOCC1 6.03% [at 57.5 µM]
O=C(NCC1CCN(c2cc(-c3ccc(Cl)cc3)[nH]n2)CC1)c1ccc(=O)[nH]c1 14.3%
O=c1cc(-c2cccnc2)oc2c(NCc3ccc(F)cc3)nccc12 12.8% [at 57.5 µM]
COc1ccc(C(=O)N2CC(CO)C3(CCNCC3)C2)cc1 (configuration not stated) 1.56%
Cc1ccc(CNC(=O)C2CCCN(c3cnn(Cc4ccccc4)c(=O)c3)C2)o1 (configuration not stated) 0.686%
O=C(NC1CC1)[C@@H]1C[C@H](Oc2cccnc2)CN1C(=O)c1ccccn1 -0.158%
COc1ccccc1CN[C@H]1CC(C)(C)[C@@H]2C[C@@](C)(O)CC[C@]12CCC(=O)NCCc1c[nH]c2ccccc12 1.27%
CN(c1ccccc1)S(=O)(=O)C1CCS(=O)(=O)C1 (configuration not stated) 0.0041%
O=c1cc(N2CCOCC2)oc2c(N3CCN(c4ccccn4)CC3)nccc12 6.49% [at 57.5 µM]
COCC1(CNS(=O)(=O)c2ccc(Cl)cc2)C[C@@H](O)[C@@H](O)C1 (some centres not stated) 7.96% [at 57.5 µM]
CCNc1ncc(C(=O)N[C@H](C2CCNCC2)C2CC(O)C2)cn1 (some centres not stated) 21.5%
CC[C@@]1(C(=O)O)C[C@H](C(=O)N(C)CCO)[C@H](c2ccc(F)cc2)N1C 3.26%
O=C1NC2(CCN(Cc3ccsc3)C2)COc2ccccc21 (configuration not stated) 2.92% [at 57.5 µM]
O=C(c1ccc[nH]c1=O)N1CC(F)(F)C[C@H]1c1nc(C2CC2)no1 16.2%
Cc1nn2c(c1-c1ccccc1Oc1ccccc1)N(C(=O)c1cccc(C#N)c1)CCC2 4.65% [at 57.5 µM]
COCc1nncn1C1CCN(S(=O)(=O)c2ccc(Br)cc2)CC1 0.872%
O=C1[C@H]2CN(Cc3c[nH]c4ccccc34)C[C@H]2C(=O)N1CCc1ccccc1 -3.06%
CCn1c(CN(C)C)nnc1C1CCN(Cc2ccc(-n3ccnc3)cc2)CC1 -0.901%
COCc1ncc(C)n1CC1CCN(C(=O)C2(c3ccc(OC)cc3)CC2)CC1 -6.4%
O=C(C[C@@H]1CCNC[C@@H]1Cc1cc(CC2CCCCC2)on1)NC1CCCCC1 1.72% [at 57.5 µM]
Cc1cnc(C2CCNC2)n1Cc1ccccc1 (configuration not stated) 8.99%
COCCn1c(C)cnc1CC1CCCN(S(=O)(=O)c2cccc(F)c2)C1 (configuration not stated) 7.14%
COCCN(C)C[C@H]1C[C@H](CO)CN(C(=O)c2cc3ccccc3s2)C1 14.6%
O=S(=O)(NCCc1noc(-c2ccccc2)n1)c1ccc(Cl)cc1 0.742%
CSCc1ccc(C(=O)N2CCN(c3ccc(C)cc3)C(=O)C2)o1 42.7%
COCc1noc(CCNC(=O)C2CC3(CCNCC3)CN2)n1 (configuration not stated) 7.45%
O=C(c1ccco1)N1c2ccccc2CC1c1nnc(C2CCOCC2)o1 (configuration not stated) 12.2%
COCC1CN(C)CC12CCN(S(=O)(=O)Cc1ccc(F)cc1)CC2 (configuration not stated) -8.48%
CCS(=O)(=O)N1CCCCCCNC(=O)[C@@H]2C[C@@H](C(=O)N3CCc4ccccc4C3)C[C@@H]21 5.38%
O=C(O)C[C@@H]1CCN(C(=O)C2CCCC2)C[C@@H]1CCN1CCCCC1 19.5% [at 57.5 µM]
COc1cccc(COC2CN(C(=O)CCn3nccc3C)CC(=O)N(Cc3ccccn3)C2)c1 (configuration not stated) 7.64%
COc1cc(F)ccc1-c1nccc2c(=O)cc(-c3cnn(C)c3)oc12 5.26% [at 57.5 µM]
Cc1ccc(CNC(=O)Nc2cnc3c(c2)CCC3)cc1 6.86%
CN(C)C[C@@H]1CN(S(C)(=O)=O)C[C@H]1NC(=O)c1ccc(Cl)s1 6.59%
CC(C)N[C@@H]1CO[C@H](CNC(=O)c2ccccc2)[C@H]1O -8.28% [at 77.1 µM]
CCCNC(=O)C1C(c2ccc(NC(=O)c3ccco3)cc2)OC(=O)N1Cc1ccccc1 (configuration not stated) 2.91%
CN1CCN([C@H]2[C@@H]3OC[C@@H](O3)[C@@H](NCc3ccc(-c4ccccc4)cc3)[C@@H]2O)CC1 0.426% [at 57.5 µM]
COc1ccc(-c2ccccc2C(=O)N2CCCC2)nn1 6.81% [at 57.5 µM]
O=C(O)C[C@@H]1CCN(C(=O)Nc2ccc(C(F)(F)F)cc2)C[C@@H]1CCN1C[C@@H]2C[C@H](C1)c1cccc(=O)n1C2 4.52%

Arranged by count of non-hydrogen atoms (descending): some entries from above.
Activity % (negative = inhibition), inactive:
COc1ccccc1CN[C@H]1CC(C)(C)[C@@H]2C[C@@](C)(O)CC[C@]12CCC(=O)NCCc1c[nH]c2ccccc12 1.27%
CC(=O)Nc1ccc(CN2CCC[C@H]2c2nc(-c3ccc(N4CCC(C(N)=O)CC4)nc3)no2)cc1 45.9%
COc1cccc(COC2CN(C(=O)CCn3nccc3C)CC(=O)N(Cc3ccccn3)C2)c1 (configuration not stated) 7.64%
CCCNC(=O)C1C(c2ccc(NC(=O)c3ccco3)cc2)OC(=O)N1Cc1ccccc1 (configuration not stated) 2.91%
CC(C)N1C[C@H](O)C[C@H]1c1nnc2n1CCN(C(=O)CCc1c[nH]c3ccccc13)CC2 16.5%
Cc1noc(C)c1-c1cnc(Nc2ccc(CN3CCN(C)CC3)cc2)c2c1CCO2 9.84% [at 57.5 µM]
CN1CCN([C@H]2[C@@H]3OC[C@@H](O3)[C@@H](NCc3ccc(-c4ccccc4)cc3)[C@@H]2O)CC1 0.426% [at 57.5 µM]
CCN(Cc1ccncc1)C(=O)c1coc(COc2cccc(C(F)(F)F)c2)n1 0.141%
O=C1[C@H]2CN(Cc3c[nH]c4ccccc34)C[C@H]2C(=O)N1CCc1ccccc1 -3.06%
O=C(c1ccco1)N1c2ccccc2CC1c1nnc(C2CCOCC2)o1 (configuration not stated) 12.2%
Cn1cc(-c2nc(N3CCOCC3)cc3c2CN(CC2CC2)C3=O)cn1 3.84% [at 57.5 µM]
O=C(N[C@H](C1CCNCC1)C1CC(O)C1)c1ccc2nccnc2c1 (some centres not stated) 28.9%
CCNc1ncc(C(=O)N[C@H](C2CCNCC2)C2CC(O)C2)cn1 (some centres not stated) 21.5%
COCc1noc(CCNC(=O)C2CC3(CCNCC3)CN2)n1 (configuration not stated) 7.45%
CS(=O)(=O)N1CC2(CCN(C3COC3)C2)Cc2ccccc21 (configuration not stated) -1.45%
CCN(C1CCOCC1)C1CN(C(=O)C2CCCCC2)C1 1.58%
CN(c1ccccc1)S(=O)(=O)C1CCS(=O)(=O)C1 (configuration not stated) 0.0041%
